The results in this text go back to doi:10.1101/636324.

B1: YDA (enzyme, UniProt Q9CAD5 1-883)
chain: MPWWSKSKDEKKKTNKESIIDAFNRKLGFASEDRSSGRSRKSRRRRDEIVSERGAISRLPSRSPSPSTRVSRCQSFAERSPAVPLPRPIVRPHVTSTDSGMNGSQRPGLDANLKPSWLPLPKPHGATSIPDNTGAEPDFATASVSSGSSVGDIPSDSLLSPLASDCENGNRTPVNISSRDQSMHSNKNSAEMFKPVPNKNRILSASPRRRPLGTHVKNLQIPQRDLVLCSAPDSLLSSPSRSPMRSFIPDQVSNHGLLISKPYSDVSLLGSGQCSSPGSGYNSGNNSIGGDMATQLFWPQSRCSPECSPVPSPRMTSPGPSSRIQSGAVTPLHPRAGGSTTGSPTRRLDDNRQQSHRLPLPPLLISNTCPFSPTYSAATSPSVPRSPARAEATVSPGSRWKKGRLLGMGSFGHVYLGFNSESGEMCAMKEVTLCSDDPKSRESAQQLGQEISVLSRLRHQNIVQYYGSETVDDKLYIYLEYVSGGSIYKLLQEYGQFGENAIRNYTQQILSGLAYLHAKNTVHRDIKGANILVDPHGRVKVADFGMAKHITAQSGPLSFKGSPYWMAPEVIKNSNGSNLAVDIWSLGCTVLEMATTKPPWSQYEGVPAMFKIGNSKELPDIPDHLSEEGKDFVRKCLQRNPANRPTAAQLLDHAFVRNVMPMERPIVSGEPAEAMNVASSTMRSLDIGHARSLPCLDSEDATNYQQKGLKHGSGFSISQSPRNMSCPISPVGSPIFHSHSPHISGRRSPSPISSPHALSGSSTPLTGCGGAIPFHHQRQTTVNFLHEGIGSSRSPGSGGNFYTNSFFQEPSRQQDRSRSSPRTPPHVFWDNNGSIQPGYNWNKDNQPVLSDHVSQQLLSEHLKLKSLDLRPGFSTPGSTNRGP
B2: BSL2 (protein, UniProt Q9SJF0 1-1018)
chain: MDEDSSMVADNDQDREFQSLDGGQSPSPMERETPQQMNDQSPPPEGGSVPTPPPSDPNPATSQQQAAAVVGQEQQPALVVGPRCAPTYSVVDAMMDKKEDGPGPRCGHTLTAVPAVGDEGTPGYIGPRLVLFGGATALEGNSGGTGTPTSAGSAGIRLAGATADVHCYDVLSNKWTRLTPFGEPPTPRAAHVATAVGTMVVIQGGIGPAGLSAEDLHVLDLTQQRPRWHRVVVQGPGPGPRYGHVMALVGQRYLMAIGGNDGKRPLADVWALDTAAKPYEWRKLEPEGEGPPPCMYATASARSDGLLLLCGGRDANSVPLASAYGLAKHRDGRWEWAIAPGVSPSSRYQHAAVFVNARLHVSGGALGGGRMVEDSSSVAVLDTAAGVWCDTKSVVTSPRTGRYSADAAGGDASVELTRRCRHAAAAVGDLIFIYGGLRGGVLLDDLLVAEDLAAAETTYAASHAAAAAATNSPPGRLPGRYGFSDERNRELSESAADGAVVLGSPVAPPVNGDMHTDISPENALLPGTRRTNKGVEYLVEASAAEAEAISATLAAAKARQVNGEVELPDRDCGAEATPSGKPTFSLIKPDSMGSMSVTPAGIRLHHRAVVVAAETGGALGGMVRQLSIDQFENEGRRVSYGTPESATAARKLLDRQMSINSVPKKVIAHLLKPRGWKPPVRRQFFLDCNEIADLCDSAERIFASEPTVLQLKAPIKIFGDLHGQFGDLMRLFDEYGSPSTAGDISYIDYLFLGDYVDRGQHSLETISLLLALKVEYQHNVHLIRGNHEAADINALFGFRIECIERMGERDGIWVWHRINRLFNWLPLAASIEKKIICMHGGIGRSINHVEQIENIQRPITMEAGSIVLMDLLWSDPTENDSVEGLRPNARGPGLVTFGPDRVMEFCNNNDLQLIVRAHECVMDGFERFAQGHLITLFSATNYCGTANNAGAILVLGRDLVVVPKLIHPLPPALSSPETSPERHIEDTWMQELNANRPATPTRGRPQNSNDRGGSLAWM
B3: auxin transporter PIN3 (protein, UniProt Q9S7Z8 1-640)
chain: MISWHDLYTVLTAVIPLYVAMILAYGSVRWWKIFSPDQCSGINRFVAIFAVPLLSFHFISTNNPYAMNLRFIAADTLQKIIMLSLLVLWANFTRSGSLEWSITIFSLSTLPNTLVMGIPLLIAMYGEYSGSLMVQIVVLQCIIWYTLLLFLFEFRGAKMLIMEQFPETAASIVSFKVESDVVSLDGHDFLETDAEIGDDGKLHVTVRKSNASRRSFCGPNMTPRPSNLTGAEIYSLSTTPRGSNFNHSDFYNMMGFPGGRLSNFGPADMYSVQSSRGPTPRPSNFEENCAMASSPRFGYYPGGGAGSYPAPNPEFSSTTTSTANKSVNKNPKDVNTNQQTTLPTGGKSNSHDAKELHMFVWSSNGSPVSDRAGLNVFGGAPDNDQGGRSDQGAKEIRMLVPDQSHNGETKAVAHPASGDFGGEQQFSFAGKEEEAERPKDAENGLNKLAPNSTAALQSKTGLGGAEASQRKNMPPASVMTRLILIMVWRKLIRNPNTYSSLIGLIWALVAFRWHVAMPKIIQQSISILSDAGLGMAMFSLGLFMALQPKLIACGNSVATFAMAVRFLTGPAVMAVAAIAIGLRGDLLRVAIVQAALPQGIVPFVFAKEYNVHPAILSTGVIFGMLIALPITLVYYILLGL
B4: OCTOPUS (protein, UniProt Q9SS80 1-685)
chain: MNPATDPVSAAAAALAPPPQPPQPHRLSTSCNRHPEERFTGFCPSCLCERLSVLDQTNNGGSSSSSKKPPTISAAALKALFKPSGNNGVGGVNTNGNGRVKPGFFPELRRTKSFSASKNNEGFSGVFEPQRRSCDVRLRSSLWNLFSQDEQRNLPSNVTGGEIDVEPRKSSVAEPVLEVNDEGEAESDDEELEEEEEEDYVEAGDFEILNDSGELMREKSDEIVEVREEIEEAVKPTKGLSEEELKPIKDYIDLDSQTKKPSVRRSFWSAASVFSKKLQKWRQNQKMKKRRNGGDHRPGSARLPVEKPIGRQLRDTQSEIADYGYGRRSCDTDPRFSLDAGRFSLDAGRFSVDIGRISLDDPRYSFDEPRASWDGSLIGRTMFPPAARAPPPPSMLSVVEDAPPPVHRHVTRADMQFPVEEPAPPPPVVNQTNGVSDPVIIPGGSIQTRDYYTDSSSRRRKSLDRSSSSMRKTAAAVVADMDEPKLSVSSAISIDAYSGSLRDNNNYAVETADNGSFREPAMMIGDRKVNSNDNNKKSRRWGKWSILGLIYRKSVNKYEEEEEEEEDRYRRLNGGMVERSLSESWPELRNGGGGGGGPRMVRSNSNVSWRSSGGGSARKVNGLDRRNKSSRYSPKNGENGMLKFYLPHMKASRRMSGTGGAGGGGGGGWANSHGHSIARSVMRLY
B5: ARF2 (protein, UniProt Q94JM3 1-859)
chain: MASSEVSMKGNRGGDNFSSSGFSDPKETRNVSVAGEGQKSNSTRSAAAERALDPEAALYRELWHACAGPLVTVPRQDDRVFYFPQGHIEQVEASTNQAAEQQMPLYDLPSKLLCRVINVDLKAEADTDEVYAQITLLPEANQDENAIEKEAPLPPPPRFQVHSFCKTLTASDTSTHGGFSVLRRHADECLPPLDMSRQPPTQELVAKDLHANEWRFRHIFRGQPRRHLLQSGWSVFVSSKRLVAGDAFIFLRGENGELRVGVRRAMRQQGNVPSSVISSHSMHLGVLATAWHAISTGTMFTVYYKPRTSPSEFIVPFDQYMESVKNNYSIGMRFKMRFEGEEAPEQRFTGTIVGIEESDPTRWPKSKWRSLKVRWDETSSIPRPDRVSPWKVEPALAPPALSPVPMPRPKRPRSNIAPSSPDSSMLTREGTTKANMDPLPASGLSRVLQGQEYSTLRTKHTESVECDAPENSVVWQSSADDDKVDVVSGSRRYGSENWMSSARHEPTYTDLLSGFGTNIDPSHGQRIPFYDHSSSPSMPAKRILSDSEGKFDYLANQWQMIHSGLSLKLHESPKVPAATDASLQGRCNVKYSEYPVLNGLSTENAGGNWPIRPRALNYYEEVVNAQAQAQAREQVTKQPFTIQEETAKSREGNCRLFGIPLTNNMNGTDSTMSQRNNLNDAAGLTQIASPKVQDLSDQSKGSKSTNDHREQGRPFQTNNPHPKDAQTKTNSSRSCTKVHKQGIALGRSVDLSKFQNYEELVAELDRLFEFNGELMAPKKDWLIVYTDEENDMMLVGDDPWQEFCCMVRKIFIYTKEEVRKMNPGTLSCRSEEEAVVGEGSDAKDAKSASNPSLSSAGNS
B6: BSL3 (protein, UniProt Q9SHS7 1-1006)
chain: MDLDSSMVPENDQDPIATSENQSPMEEKEEASEQQTGSESESASLTPSLPPPSQQQQQQQQQPQVTAVVGPRCAPTYSVVNAIIEKKEDGPGPRCGHTLTAVPAVGEEGTSSYIGPRLILFGGATALEGNSGGTGTPTSAGSAGIRLAGATADVHCYDVLSNKWSRLTPYGEPPSPRAAHVATAVGTMVVIQGGIGPAGLSAEDLHVLDLTQQRPRWHRVVVQGPGPGPRYGHVMALVGQRYLMAIGGNDGKRPLADVWALDTAAKPYEWRKLEPEGEGPPPCMYATASARSDGLLLLCGGRDANSVPLASAYGLAKHRDGRWEWAIAPGVSPSARYQHAAVFVNARLHVSGGALGGGRMVEDSSSVAVLDTAAGVWCDTKSVVTSPRTGRYSADAAGGDASVELTRRCRHAAAAVGDLIFIYGGLRGGVLLDDLLVAEDLAAAETTSAASHAAAAAAATNTPPGRSPGRYGFSDERTGELPESAPDAVVLGSPVAPPVNGDMYTDISTENAMVPGIRRTSKGVEYLVEASAAEAEAISATLAAAKARQVNGEVELPDRDRGAEATPSGKPSLSLIKPDSAVPNSVIPAGVRLHHRAVVVAAETGGALGGMVRQLSIDQFENEGRRVSYGTPESATAARKLLDRQMSINSVPKKVVAHLLKPRGWKPPVRRQFFLDCNEIADLCDSAERIFSSEPTVLQLKAPIKIFGDLHGQFGDLMRLFDEYGSPSTAGDISYIDYLFLGDYVDRGQHSLETITLLLALKVEYQHNVHLIRGNHEAADINALFGFRIECIERMGERDGIWVWHRINRLFNWLPLAALIEKKIICMHGGIGRSINHVEQIENIQRPITMEAGSIVLMDLLWSDPTENDSVEGLRPNARGPGLVTFGPDRVMEFCNNNDLQLIVRAHECVMDGFERFAQGHLITLFSATNYCGTANNAGAILVLGRDLVVVPKLIHPLPPAITSPETSPERHIEDTWMQELNVNRPPTPTRGRPQNPNDRGSLAWI

These are yes or no findings as the source states them, for the method shown. Binding seen in cells or lysates may run through a third protein. Here binding means that the protein was enriched with, or labelled near, the bait; the list need not be complete. Tags and fused reporters may be left off the sequences shown.

The assay concerns the target T1, BIN2-YFP-TbID (Arabidopsis) (UniProt Q39011).
T1 sequence: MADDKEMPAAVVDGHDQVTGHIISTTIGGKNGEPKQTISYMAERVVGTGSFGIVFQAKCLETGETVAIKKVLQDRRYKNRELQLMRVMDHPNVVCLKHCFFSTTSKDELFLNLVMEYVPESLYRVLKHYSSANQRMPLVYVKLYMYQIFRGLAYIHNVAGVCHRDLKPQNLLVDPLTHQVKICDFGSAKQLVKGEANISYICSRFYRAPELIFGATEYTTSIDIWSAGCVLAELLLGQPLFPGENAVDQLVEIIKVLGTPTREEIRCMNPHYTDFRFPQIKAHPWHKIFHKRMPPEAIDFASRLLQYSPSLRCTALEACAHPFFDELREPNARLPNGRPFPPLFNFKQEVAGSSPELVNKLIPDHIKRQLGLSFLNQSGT
As to the kind of experiment: proximity labelling.
B1: the binding result is reported as “binds”.

With B2, the binding entry is given as “binds”.

As for B3, the binding entry was “binds”.

For the molecule B4, the binding result is “binds”.

On to B5, for which the binding result is “binds”.

For the molecule B6, the binding entry is reported as “binds”.
